No constants are given. Whether binding was seen depends on the method and setting. In cells and extracts the contact can be indirect. Some results given as binding are weak or reduced against the parent protein; the word gives no strength. For some assays here: Tags and fused reporters may be left off the sequences shown.
Tests used:
[1] = molecular target: C-terminal yellow fluorescent protein (YFP)-tagged MeCP2 (human) (UniProt P51608); experiment: split reporter; BiFC: MeCP2-cYFP coexpressed with nYFP-tagged proteins in HEK293T cells (0.5 ug pBiFC constructs, Lipofectamine 3000, 48 hours); YFP read by FACS and by confocal microscopy
[2] = molecular target: FLAG-tagged MeCP2, full length (human) (UniProt P51608); experiment: co-IP; in vitro binding assay: in vitro transcribed and translated FLAG-tagged MeCP2 (or fragment) incubated with one HA-tagged SEC subunit in 250 ul IP buffer, 1 hour, 4°C; IP with FLAG antibody-conjugated beads, four washes; blots for HA and FLAG
[3] = molecular target: endogenous MeCP2 (HEK293T) (human (endogenous in HEK293T)) (UniProt P51608); experiment: co-IP; endogenous MeCP2 immunoprecipitated (MeCP2 antibody Sigma-Aldrich M6818 on Dynabead G, overnight, 4°C) from HEK293T lysate in IP buffer (10 mM Hepes pH 7.9, 3 mM MgCl2, 5 mM KCl, 140 mM NaCl, 0.1 mM EDTA, 0.5% NP-40, nuclease); blots for endogenous partners; normal mouse IgG as control; also in cells with non-targeting, ENL or ELL2 short hairpin RNA

Amino acid sequences for entries named in this document (tags omitted).
UniProt P51608: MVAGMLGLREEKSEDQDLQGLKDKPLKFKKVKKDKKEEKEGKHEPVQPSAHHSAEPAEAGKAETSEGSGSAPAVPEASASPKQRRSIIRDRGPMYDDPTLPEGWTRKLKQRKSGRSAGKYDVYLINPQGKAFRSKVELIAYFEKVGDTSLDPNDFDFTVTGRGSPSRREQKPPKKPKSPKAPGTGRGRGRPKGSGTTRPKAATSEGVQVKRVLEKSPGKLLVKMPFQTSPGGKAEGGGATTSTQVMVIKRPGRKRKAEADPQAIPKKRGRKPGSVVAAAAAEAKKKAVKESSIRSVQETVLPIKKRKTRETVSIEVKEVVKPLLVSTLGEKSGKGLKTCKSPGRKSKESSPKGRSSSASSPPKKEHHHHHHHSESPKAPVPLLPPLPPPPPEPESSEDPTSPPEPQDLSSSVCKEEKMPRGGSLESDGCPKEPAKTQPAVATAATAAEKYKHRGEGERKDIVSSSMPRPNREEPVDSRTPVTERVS

Row | binding [1] | Binder | also measured
1 | binds | N-terminal YFP-tagged ENL (protein, UniProt Q03111 1-559) MDNQCTVQVRLELGHRAQLRKKPTTEGFTHDWMVFVRGPEQCDIQHFVEKVVFWLHDSFPKPRRVCKEPPYKVEESGYAGFIMPIEVHFKNKEEPRKVCFTYDLFLNLEGNPPVNHLRCEKLTFNNPTTEFRYKLLRAGGVMVMPEGADTVSRPSPDYPMLPTIPLSAFSDPKKTKPSHGSKDANKESSKTSKPHKVTKEHRERPRKDSESKSSSKELEREQAKSSKDTSRKLGEGRLPKEEKAPPPKAAFKEPKMALKETKLESTSPKGGPPPPPPPPPRASSKRPATADSPKPSAKKQKKSSSKGSRSAPGTSPRTSSSSSFSDKKPAKDKSSTRGEKVKAESEPREAKKALEVEESNSEDEASFKSESAQSSPSNSSSSSDSSSDSDFEPSQNHSQGPLRSMVEDLQSEESDEDDSSSGEEAAGKTNPGRDSRLSFSDSESDNSADSSLPSREPPPPQKPPPPNSKVSGRRSPESCSKPEKILKKGTYDKAYTDELVELHRRLMALRERNVLQQIVNLIEETGHFNVTNTTFDFDLFSLDETTVRKLQSCLEAVAT | –
2 | – | hemagglutinin (HA)-tagged AFF4 (protein, UniProt Q9UHB7 1-1163) MNREDRNVLRMKERERRNQEIQQGEDAFPPSSPLFAEPYKVTSKEDKLSSRIQSMLGNYDEMKDFIGDRSIPKLVAIPKPTVPPSADEKSNPNFFEQRHGGSHQSSKWTPVGPAPSTSQSQKRSSGLQSGHSSQRTSAGSSSGTNSSGQRHDRESYNNSGSSSRKKGQHGSEHSKSRSSSPGKPQAVSSLNSSHSRSHGNDHHSKEHQRSKSPRDPDANWDSPSRVPFSSGQHSTQSFPPSLMSKSNSMLQKPTAYVRPMDGQESMEPKLSSEHYSSQSHGNSMTELKPSSKAHLTKLKIPSQPLDASASGDVSCVDEILKEMTHSWPPPLTAIHTPCKTEPSKFPFPTKESQQSNFGTGEQKRYNPSKTSNGHQSKSMLKDDLKLSSSEDSDGEQDCDKTMPRSTPGSNSEPSHHNSEGADNSRDDSSSHSGSESSSGSDSESESSSSDSEANEPSQSASPEPEPPPTNKWQLDNWLNKVNPHKVSPASSVDSNIPSSQGYKKEGREQGTGNSYTDTSGPKETSSATPGRDSKTIQKGSESGRGRQKSPAQSDSTTQRRTVGKKQPKKAEKAAAEEPRGGLKIESETPVDLASSMPSSRHKAATKGSRKPNIKKESKSSPRPTAEKKKYKSTSKSSQKSREIIETDTSSSDSDESESLPPSSQTPKYPESNRTPVKPSSVEEEDSFFRQRMFSPMEEKELLSPLSEPDDRYPLIVKIDLNLLTRIPGKPYKETEPPKGEKKNVPEKHTREAQKQASEKVSNKGKRKHKNEDDNRASESKKPKTEDKNSAGHKPSSNRESSKQSAAKEKDLLPSPAGPVPSKDPKTEHGSRKRTISQSSSLKSSSNSNKETSGSSKNSSSTSKQKKTEGKTSSSSKEVKEKAPSSSSNCPPSAPTLDSSKPRRTKLVFDDRNYSADHYLQEAKKLKHNADALSDRFEKAVYYLDAVVSFIECGNALEKNAQESKSPFPMYSETVDLIKYTMKLKNYLAPDATAADKRLTVLCLRCESLLYLRLFKLKKENALKYSKTLTEHLKNSYNNSQAPSPGLGSKAVGMPSPVSPKLSPGNSGNYSSGASSASASGSSVTIPQKIHQMAASYVQVTSNFLYATEIWDQAEQLSKEQKEFFAELDKVMGPLIFNASIMTDLVRYTRQGLHWLRQDAKLIS | binding [2]: binds
3 | binds | N-terminal YFP-tagged AFF4 (protein, UniProt Q9UHB7 1-1163) MNREDRNVLRMKERERRNQEIQQGEDAFPPSSPLFAEPYKVTSKEDKLSSRIQSMLGNYDEMKDFIGDRSIPKLVAIPKPTVPPSADEKSNPNFFEQRHGGSHQSSKWTPVGPAPSTSQSQKRSSGLQSGHSSQRTSAGSSSGTNSSGQRHDRESYNNSGSSSRKKGQHGSEHSKSRSSSPGKPQAVSSLNSSHSRSHGNDHHSKEHQRSKSPRDPDANWDSPSRVPFSSGQHSTQSFPPSLMSKSNSMLQKPTAYVRPMDGQESMEPKLSSEHYSSQSHGNSMTELKPSSKAHLTKLKIPSQPLDASASGDVSCVDEILKEMTHSWPPPLTAIHTPCKTEPSKFPFPTKESQQSNFGTGEQKRYNPSKTSNGHQSKSMLKDDLKLSSSEDSDGEQDCDKTMPRSTPGSNSEPSHHNSEGADNSRDDSSSHSGSESSSGSDSESESSSSDSEANEPSQSASPEPEPPPTNKWQLDNWLNKVNPHKVSPASSVDSNIPSSQGYKKEGREQGTGNSYTDTSGPKETSSATPGRDSKTIQKGSESGRGRQKSPAQSDSTTQRRTVGKKQPKKAEKAAAEEPRGGLKIESETPVDLASSMPSSRHKAATKGSRKPNIKKESKSSPRPTAEKKKYKSTSKSSQKSREIIETDTSSSDSDESESLPPSSQTPKYPESNRTPVKPSSVEEEDSFFRQRMFSPMEEKELLSPLSEPDDRYPLIVKIDLNLLTRIPGKPYKETEPPKGEKKNVPEKHTREAQKQASEKVSNKGKRKHKNEDDNRASESKKPKTEDKNSAGHKPSSNRESSKQSAAKEKDLLPSPAGPVPSKDPKTEHGSRKRTISQSSSLKSSSNSNKETSGSSKNSSSTSKQKKTEGKTSSSSKEVKEKAPSSSSNCPPSAPTLDSSKPRRTKLVFDDRNYSADHYLQEAKKLKHNADALSDRFEKAVYYLDAVVSFIECGNALEKNAQESKSPFPMYSETVDLIKYTMKLKNYLAPDATAADKRLTVLCLRCESLLYLRLFKLKKENALKYSKTLTEHLKNSYNNSQAPSPGLGSKAVGMPSPVSPKLSPGNSGNYSSGASSASASGSSVTIPQKIHQMAASYVQVTSNFLYATEIWDQAEQLSKEQKEFFAELDKVMGPLIFNASIMTDLVRYTRQGLHWLRQDAKLIS | –
4 | – | endogenous AFF4 (HEK293T) (protein, UniProt Q9UHB7 1-1163) MNREDRNVLRMKERERRNQEIQQGEDAFPPSSPLFAEPYKVTSKEDKLSSRIQSMLGNYDEMKDFIGDRSIPKLVAIPKPTVPPSADEKSNPNFFEQRHGGSHQSSKWTPVGPAPSTSQSQKRSSGLQSGHSSQRTSAGSSSGTNSSGQRHDRESYNNSGSSSRKKGQHGSEHSKSRSSSPGKPQAVSSLNSSHSRSHGNDHHSKEHQRSKSPRDPDANWDSPSRVPFSSGQHSTQSFPPSLMSKSNSMLQKPTAYVRPMDGQESMEPKLSSEHYSSQSHGNSMTELKPSSKAHLTKLKIPSQPLDASASGDVSCVDEILKEMTHSWPPPLTAIHTPCKTEPSKFPFPTKESQQSNFGTGEQKRYNPSKTSNGHQSKSMLKDDLKLSSSEDSDGEQDCDKTMPRSTPGSNSEPSHHNSEGADNSRDDSSSHSGSESSSGSDSESESSSSDSEANEPSQSASPEPEPPPTNKWQLDNWLNKVNPHKVSPASSVDSNIPSSQGYKKEGREQGTGNSYTDTSGPKETSSATPGRDSKTIQKGSESGRGRQKSPAQSDSTTQRRTVGKKQPKKAEKAAAEEPRGGLKIESETPVDLASSMPSSRHKAATKGSRKPNIKKESKSSPRPTAEKKKYKSTSKSSQKSREIIETDTSSSDSDESESLPPSSQTPKYPESNRTPVKPSSVEEEDSFFRQRMFSPMEEKELLSPLSEPDDRYPLIVKIDLNLLTRIPGKPYKETEPPKGEKKNVPEKHTREAQKQASEKVSNKGKRKHKNEDDNRASESKKPKTEDKNSAGHKPSSNRESSKQSAAKEKDLLPSPAGPVPSKDPKTEHGSRKRTISQSSSLKSSSNSNKETSGSSKNSSSTSKQKKTEGKTSSSSKEVKEKAPSSSSNCPPSAPTLDSSKPRRTKLVFDDRNYSADHYLQEAKKLKHNADALSDRFEKAVYYLDAVVSFIECGNALEKNAQESKSPFPMYSETVDLIKYTMKLKNYLAPDATAADKRLTVLCLRCESLLYLRLFKLKKENALKYSKTLTEHLKNSYNNSQAPSPGLGSKAVGMPSPVSPKLSPGNSGNYSSGASSASASGSSVTIPQKIHQMAASYVQVTSNFLYATEIWDQAEQLSKEQKEFFAELDKVMGPLIFNASIMTDLVRYTRQGLHWLRQDAKLIS | binding [3]: binds
5 | no binding | Ppp6c-nYFP (protein, UniProt Q9CQR6 1-305) MAPLDLDKYVEIARQCKYLPENDLKRLCDYVCDLLLEESNVQPVSTPVTVCGDIHGQFYDLCELFRTGGQVPDTNYIFMGDFVDRGYYSLETFTYLLALKAKWPDRITLLRGNHESRQITQVYGFYDECQTKYGNANAWRYCTKVFDMLTVAALIDEQILCVHGGLSPDIKTLDQIRTIERNQEIPHKGAFCDLVWSDPEDVDTWAISPRGAGWLFGAKVTNEFVHINNLKLICRAHQLVHEGYKFMFDEKLVTVWSAPNYCYRCGNIASIMVFKDVNTREPKLFRAVPDSERVIPPRTTTPYFL | –

Source: paper PMC12652325
